Results on three molecules are retold here after article doi:10.1101/2024.11.26.625568.

In assay [1] the target is TPR domain of LGN (a.a. 1-409) (human) (UniProt P81274). Description: mass photometry; single protein diluted to 5-20 nM in 50 mM HEPES pH 7.4, 150 mM NaCl, 1 mM EGTA, 10% glycerol; TwoMP mass photometer; both purified.
Assay [2] deals with Full-length NuMA (human) (UniProt Q14980). As to the kind of experiment: single-molecule comigration on microtubules (TIRF); labelled LGN added to DDN complexes (dynein, dynactin, NuMA FL or Bonsai, Lis1) moving on unlabeled MTs; both purified.
Another assay addresses T1, NuMA Bonsai (human) (UniProt Q14980).
T1 sequence: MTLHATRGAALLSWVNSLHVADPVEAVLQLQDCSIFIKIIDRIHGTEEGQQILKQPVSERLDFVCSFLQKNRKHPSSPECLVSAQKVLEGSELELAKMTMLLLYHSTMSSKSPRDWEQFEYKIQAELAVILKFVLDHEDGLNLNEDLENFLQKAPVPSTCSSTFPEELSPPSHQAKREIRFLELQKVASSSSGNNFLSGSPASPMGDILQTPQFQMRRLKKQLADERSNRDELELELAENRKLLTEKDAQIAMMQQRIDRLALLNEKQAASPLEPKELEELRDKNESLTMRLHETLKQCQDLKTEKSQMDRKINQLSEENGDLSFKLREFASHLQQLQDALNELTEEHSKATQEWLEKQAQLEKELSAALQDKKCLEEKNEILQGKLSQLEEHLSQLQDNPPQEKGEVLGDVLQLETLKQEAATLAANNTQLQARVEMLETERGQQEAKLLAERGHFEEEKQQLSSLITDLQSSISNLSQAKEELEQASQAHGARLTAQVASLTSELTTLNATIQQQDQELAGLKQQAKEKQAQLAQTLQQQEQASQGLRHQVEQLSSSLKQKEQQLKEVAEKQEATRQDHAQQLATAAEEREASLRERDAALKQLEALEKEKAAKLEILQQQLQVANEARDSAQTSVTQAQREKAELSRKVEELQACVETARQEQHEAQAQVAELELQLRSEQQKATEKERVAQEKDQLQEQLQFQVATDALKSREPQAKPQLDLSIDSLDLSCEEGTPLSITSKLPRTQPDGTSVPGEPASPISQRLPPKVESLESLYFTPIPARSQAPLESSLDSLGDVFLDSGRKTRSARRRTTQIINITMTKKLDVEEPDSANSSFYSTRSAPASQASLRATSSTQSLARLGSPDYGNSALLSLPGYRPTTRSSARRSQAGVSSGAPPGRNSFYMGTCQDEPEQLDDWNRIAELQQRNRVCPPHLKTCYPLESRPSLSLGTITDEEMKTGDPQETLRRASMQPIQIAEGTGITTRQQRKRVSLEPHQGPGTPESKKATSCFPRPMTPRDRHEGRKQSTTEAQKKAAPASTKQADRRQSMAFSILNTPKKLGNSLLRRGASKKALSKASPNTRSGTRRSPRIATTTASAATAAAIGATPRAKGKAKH
Described as above.

Assay [3] concerns the target Full-length NuMA (human) (UniProt Q14980). As to the kind of experiment: three-colour TIRF imaging on surface-immobilised microtubules; LD655-labelled LGN (470 nM) with or without NuMA-mNG, mixed 3 min on ice, flowed over immobilised Cy3 MTs; both purified.
The target of another assay is NuMA MTBD2 (human) (UniProt Q14980). Description: mass photometry; single protein diluted to 5-20 nM in 50 mM HEPES pH 7.4, 150 mM NaCl, 1 mM EGTA, 10% glycerol; TwoMP mass photometer; both purified.
In a further assay the target is T2, NuMA C (human), Q14980.
T2 chain: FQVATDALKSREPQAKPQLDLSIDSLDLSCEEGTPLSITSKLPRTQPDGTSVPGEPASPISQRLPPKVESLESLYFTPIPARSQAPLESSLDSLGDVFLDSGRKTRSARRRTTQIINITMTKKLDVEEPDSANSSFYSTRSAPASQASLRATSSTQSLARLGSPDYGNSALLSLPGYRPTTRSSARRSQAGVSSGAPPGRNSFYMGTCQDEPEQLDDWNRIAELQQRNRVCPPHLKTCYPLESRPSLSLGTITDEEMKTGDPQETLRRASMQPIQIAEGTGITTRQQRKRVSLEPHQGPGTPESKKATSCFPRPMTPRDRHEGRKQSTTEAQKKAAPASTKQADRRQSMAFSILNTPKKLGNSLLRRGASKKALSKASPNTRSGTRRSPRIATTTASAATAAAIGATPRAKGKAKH
Described as above. Conditions: remark: other sources report otherwise.

Results are given in words; binding and its absence hold for the method and conditions named. Some entries that bind do so weakly or less than the wild type.

B1: TPR domain of LGN (a.a. 1-409) (domain or fragment, UniProt P81274 1-409)
chain: MEENLISMREDHSFHVRYRMEASCLELALEGERLCKSGDCRAGVSFFEAAVQVGTEDLKTLSAIYSQLGNAYFYLHDYAKALEYHHHDLTLARTIGDQLGEAKASGNLGNTLKVLGNFDEAIVCCQRHLDISRELNDKVGEARALYNLGNVYHAKGKSFGCPGPQDVGEFPEEVRDALQAAVDFYEENLSLVTALGDRAAQGRAFGNLGNTHYLLGNFRDAVIAHEQRLLIAKEFGDKAAERRAYSNLGNAYIFLGEFETASEYYKKTLLLARQLKDRAVEAQSCYSLGNTYTLLQDYEKAIDYHLKHLAIAQELNDRIGEGRACWSLGNAYTALGNHDQAMHFAEKHLEISREVGDKSGELTARLNLSDLQMVLGLSYSTNNSIMSENTEIDSSLNGVRPKLGRRHSM
modifications: LD655 dye on the SNAP tag (unlabeled LGN in some assays)
Regarding B1, the binding result in assay [1] is reported as “no binding (tested: 5–20 nM)”; with Full-length NuMA (human) [2], “binds”; with NuMA Bonsai (human), “binds”; in the assay with Full-length NuMA (human) [3], “binds”.

B2: NuMA MTBD2 (domain or fragment, UniProt Q14980 2002-2115)
chain: ESKKATSCFPRPMTPRDRHEGRKQSTTEAQKKAAPASTKQADRRQSMAFSILNTPKKLGNSLLRRGASKKALSKASPNTRSGTRRSPRIATTTASAATAAAIGATPRAKGKAKH
For B2, the binding entry in the assay with NuMA MTBD2 (human) is listed as “no binding (tested: 5–20 nM)”.

B3: NuMA C, Q14980 1700-2115 (domain or fragment)
chain: T2 chain
As for B3, the binding entry with NuMA C (human), Q14980 is “no binding (tested: 5–20 nM)”.
